{"source": "patent US8980276B2", "about": "“Conjugates for the prevention or treatment of nicotine addiction” (Pfizer Inc, priority 2010, dated 2015)", "tested_on": "anti-nicotine antibodies", "experiment": "Competition ELISA to determine specificity of antibodies induced by anti-nicotine vaccines", "type": "binding, mouse", "details": "plasma of mice immunized with conjugates of examples 1 and 2; inhibitors diluted serially from 20,000 μM", "note": "For at least one compound, name, drawing or mass did not settle the structure.", "data": [{"smiles": "CC(=O)OCC[N+](C)(C)C", "note": "[acetylcholine]", "values": [{"measurement": "inhibition of binding of anti-nicotine antibodies to nicotine-coated ELISA plates by added inhibitor", "result": "no such effect is observed"}]}]}
